According to US20250145708A1 (GOOD T CELLS, published 2025):
These are yes or no findings as the source states them, for the method shown. Some binding calls cover weakened binding; strength is not graded here.

T1: Lrig-1 protein (leucine-rich and immunoglobulin-like domains 1) expressed on the surface of L cells (human) (UniProt Q96JA1)
T1 sequence: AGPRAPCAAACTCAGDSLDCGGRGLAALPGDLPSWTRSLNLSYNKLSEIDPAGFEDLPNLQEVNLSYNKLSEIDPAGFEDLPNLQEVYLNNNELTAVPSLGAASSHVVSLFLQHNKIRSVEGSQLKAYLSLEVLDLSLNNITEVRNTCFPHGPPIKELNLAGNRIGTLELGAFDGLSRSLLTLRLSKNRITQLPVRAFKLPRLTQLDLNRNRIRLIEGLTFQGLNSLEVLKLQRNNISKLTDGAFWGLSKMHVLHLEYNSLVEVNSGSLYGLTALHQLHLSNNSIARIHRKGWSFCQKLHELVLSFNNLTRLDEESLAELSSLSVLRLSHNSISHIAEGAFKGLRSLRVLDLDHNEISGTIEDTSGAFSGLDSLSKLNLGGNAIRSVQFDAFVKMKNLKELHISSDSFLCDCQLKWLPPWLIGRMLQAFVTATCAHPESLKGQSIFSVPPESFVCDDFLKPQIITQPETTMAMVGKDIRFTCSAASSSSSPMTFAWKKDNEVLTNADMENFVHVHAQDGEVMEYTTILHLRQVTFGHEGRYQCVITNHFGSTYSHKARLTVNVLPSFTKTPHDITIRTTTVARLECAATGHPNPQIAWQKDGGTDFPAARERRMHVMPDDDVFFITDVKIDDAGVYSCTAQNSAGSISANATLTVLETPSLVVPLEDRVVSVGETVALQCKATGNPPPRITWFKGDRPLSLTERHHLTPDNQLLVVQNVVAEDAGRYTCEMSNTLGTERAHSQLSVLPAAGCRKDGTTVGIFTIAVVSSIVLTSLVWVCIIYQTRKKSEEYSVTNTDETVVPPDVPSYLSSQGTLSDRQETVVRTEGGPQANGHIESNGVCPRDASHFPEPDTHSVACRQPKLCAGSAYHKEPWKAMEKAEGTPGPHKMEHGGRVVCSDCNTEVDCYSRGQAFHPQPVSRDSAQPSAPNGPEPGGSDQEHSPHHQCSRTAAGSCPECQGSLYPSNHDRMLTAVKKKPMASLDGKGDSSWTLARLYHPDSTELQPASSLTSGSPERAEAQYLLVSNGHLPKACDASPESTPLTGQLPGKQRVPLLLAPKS

T2: Lrig-1 epitope peptide SEQ ID NO: 29
T2 sequence (peptide): KGDRPLSLTERHH


How the values were obtained:
[1] = biological target: T1, Lrig-1 protein (leucine-rich and immunoglobulin-like domains 1) expressed on the surface of L cells (human); assay: FACS on L cells stably expressing Lrig-1, eFluor 670 anti-mouse secondary antibody
[2] = biological target: T2, Lrig-1 epitope peptide SEQ ID NO: 29; assay: Lrig-1 peptide microarray (15-mers, 14 aa overlap), H6 at 1, 10 and 100 µg/ml

binding [1] | binding [2] | Binder
binds |  | A7 clone monoclonal antibody (Production Example 1) (antibody, mouse IgG2a, V domains shown) VH: EVQLLESGGGLVQPGGSLRLSCAASGFTFSGYDMSWVRQAPGKGLEWVSLIYPDSGNKYYADSVKGRFTISRDNSKNTLYLQMNSLRAEDTAVYYCARDAGLSWAGAFDYWGQGTLVTVSS VL: QSVLTQPPSASGTPGQRVTISCSGSSSNIGSNYVTWYQQLPGTAPKLLIYSDSHRPSGVPDRFSGSKSGTSASLAISGLQSEDEADYYCGSWDYSLSAYVFGGGTKLTVLR
binds |  | D9 clone monoclonal antibody (Production Example 7) (antibody, mouse IgG2a, V domains shown) VH: EVQLLESGGGLVQPGGSLRLSCAASGFTFSNYAMSWVRQAPGKGLEWVSAIYPGGGSIYYADSVKGRFTISRDNSKNTLYLQMNSLRAEDTAVYYCARDILPCPWGRCYYDYAMDVWGQGTLVTVSS VL: QSVLTQPPSASGTPGQRVTISCSDSSSNIGSNTVSWYQQLPGTAPKLLIYADNNRPSGVPDRFSGSKSGTSASLAISGLRSEDEADYYCGTWDYSLSGYVFGGGTKLTVLR

Second part, the binder before the results:

Binder | binding [1] | binding [2]
H6 clone monoclonal antibody (Production Example 8) (antibody, mouse IgG2a, V domains shown, also called H6 monoclonal antibody) VH: EVQLLESGGGLVQPGGSLRLSCAASGFTFSNYAMSWVRQAPGKGLEWVSVISHGGGSTYYADSVKGRFTISRDNSKNTLYLQMNSLRAEDTAVYYCARVISNCHLGVCYYSNGMDVWGQGTLVTVSS VL: QSVLTQPPSASGTPGQRVTISCSGSSSNIGNNDVYWYQQLPGTAPKLLIYSDSQRPSGVPDRFSGSKSGTSASLAISGLRSEDEADYYCGTWDYSLSGYVFGGGTKLTVLR | binds | binds
G3 clone monoclonal antibody (Production Example 4) (antibody, mouse IgG2a, V domains shown) VH: EVQLLESGGGLVQPGGSLRLSCAASGFTFSNYDMSWVRQAPGKGLEWVSSISPSSGSIYYADSVKGRFTISRDNSKNTLYLQMNSLRAEDTAVYYCAKDLDAFWRPSFDYWGQGTLVTVSS VL: QSVLTQPPSASGTPGQRVTISCTGSSSNIGNNNVNWYQQLPGTAPKLLIYSDSHRPSGVPDRFSGSKSGTSASLAISGLRSEDEADYYCGSWDDSLSAYVFGGGTKLTVLR | binds | 
C8 clone monoclonal antibody (Production Example 2) (antibody, mouse IgG2a, V domains shown) VH: EVQLLESGGGLVQPGGSLRLSCAASGFTFSNYYMSWVRQAPGKGLEWVSGISPGDSSTYYADSVKGRFTISRDNSKNTLYLQMNSLRAEDTAVYYCAKGLYSNPNEPFDYWGQGTLVTVSS VL: QSVLTQPPSASGTPGQRVTISCTGSSSNIGSNYVSWYQQLPGTAPKLLIYDDSQRPSGVPDRFSGSKSGTSASLAISGLRSEDEADYYCGTWDYSLNGYVFGGGTKLTVLR | binds | 
B8 clone monoclonal antibody (Production Example 6) (antibody, mouse IgG2a, V domains shown) VH: EVQLLESGGGLVQPGGSLRLSCAASGFTFSDYYMSWVRQAPGKGLEWVSGISHDSGSKYYADSVKGRFTISRDNSKNTLYLQMNSLRAEDTAVYYCARHWTTFDYWGQGTLVTVSS VL: QSVLTQPPSASGTPGQRVTISCSGSSSNIGSNNVTWYQQLPGTAPKLLIYANSNRPSGVPDRFSGSKSGTSASLAISGLRSEDEADYYCGAWDYSLSAYVFGGGTKLTVLR | binds | 
E7 clone monoclonal antibody (Production Example 3) (antibody, mouse IgG2a, V domains shown) VH: EVQLLESGGGLVQPGGSLRLSCAASGFTFSSYDMSWVRQAPGKGLEWVSGISPDGSNIYYADSVKGRFTISRDNSKNTLYLQMNSLRAEDTAVYYCAKVGLRCRYEACSYAYGMDVWGQGTLVTVSS VL: QSVLTQPPSASGTPGQRVTISCSGSSSNIGSNYVSWYQQLPGTAPKLLIYSDSHRPSGVPDRFSGSKSGTSASLAISGLRSEDEADYYCATWDSSLNGYVFGGGTKLTVLR | binds | 
